These results are taken from publication doi:10.1101/2023.07.25.550451.

Amino acid sequences for entries named in this document (tags omitted). A change or cut given only in a name is not applied to a line headed by its entry. Chains listed by the source or under a name are the forms on record and can include a tag or linker.
UniProt Q969W3: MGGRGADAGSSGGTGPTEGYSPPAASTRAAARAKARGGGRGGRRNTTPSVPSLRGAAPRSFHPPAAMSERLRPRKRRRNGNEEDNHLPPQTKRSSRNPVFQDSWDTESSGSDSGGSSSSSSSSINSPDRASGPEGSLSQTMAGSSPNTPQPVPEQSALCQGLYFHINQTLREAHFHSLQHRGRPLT
GST-FAM104A isoform 1 (Q969W3, form named): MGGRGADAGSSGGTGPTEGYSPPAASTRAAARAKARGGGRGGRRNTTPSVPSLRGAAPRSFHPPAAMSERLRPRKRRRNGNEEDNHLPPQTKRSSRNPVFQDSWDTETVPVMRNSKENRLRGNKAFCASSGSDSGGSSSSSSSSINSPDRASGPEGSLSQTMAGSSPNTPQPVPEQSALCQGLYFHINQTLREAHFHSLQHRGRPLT
GST-FAM104B isoform 3 (Q5XKR9-3, form named): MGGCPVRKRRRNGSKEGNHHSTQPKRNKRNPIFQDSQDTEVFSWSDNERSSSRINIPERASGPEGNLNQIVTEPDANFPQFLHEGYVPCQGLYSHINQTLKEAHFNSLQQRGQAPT
UniProt Q9UNN5: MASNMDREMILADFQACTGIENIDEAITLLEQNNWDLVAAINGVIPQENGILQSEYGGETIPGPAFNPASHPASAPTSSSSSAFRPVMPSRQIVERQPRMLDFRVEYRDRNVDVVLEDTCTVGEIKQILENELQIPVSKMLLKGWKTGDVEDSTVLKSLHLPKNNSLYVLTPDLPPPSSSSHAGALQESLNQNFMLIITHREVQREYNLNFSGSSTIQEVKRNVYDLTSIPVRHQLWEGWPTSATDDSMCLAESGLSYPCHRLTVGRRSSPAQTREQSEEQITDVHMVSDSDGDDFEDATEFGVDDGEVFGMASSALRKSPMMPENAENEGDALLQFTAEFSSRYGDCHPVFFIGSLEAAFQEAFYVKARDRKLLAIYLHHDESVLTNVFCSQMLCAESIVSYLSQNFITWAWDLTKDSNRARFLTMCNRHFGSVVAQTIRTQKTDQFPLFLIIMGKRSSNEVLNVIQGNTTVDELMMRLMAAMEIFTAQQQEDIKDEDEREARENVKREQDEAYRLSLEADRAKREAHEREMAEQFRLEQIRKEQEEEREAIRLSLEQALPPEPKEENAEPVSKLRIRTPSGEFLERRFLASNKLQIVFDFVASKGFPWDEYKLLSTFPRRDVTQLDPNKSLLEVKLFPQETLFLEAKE

Experiment [1] concerns the target p97 (two-hybrid fusion in pGBDU-C1) (human) (UniProt P55072). Briefly: two-hybrid.
The target in experiment [2] is GST-FAM104A isoform 1 (human) (UniProt Q969W3). Put plainly: pull-down.
Experiment [3] concerns the target GST-FAM104A isoform 2 (human) (UniProt Q969W3). Put plainly: pull-down.
Experiment [4] has as its target GST-FAM104B isoform 3 (human) (UniProt Q5XKR9). Briefly: pull-down.

No constants are given. Whether binding was seen depends on the method and setting. Some results given as binding are weak or reduced against the parent protein; the word gives no strength.

Take “FAM104B isoform 3, full-length (two-hybrid fusion in pGAD-C1) (from UniProt Q5XKR9-3 1-116)”: the binding entry in experiment [1] is “binds”.
For His6-FAF1 (from UniProt Q9UNN5 1-650), the binding result in experiment [2] is listed as “binds”; in experiment [3], “binds”; in experiment [4], “no binding (tested: 0.5 nmole His6-FAF1)”.
“p97, wild-type, full-length (recombinant) (from UniProt P55072 1-806)”: the binding result in experiment [4] is listed as “binds”.
